PubChem BioAssay AID1259299 – Sanger Institute, 2017
Here is an unselected part of 794 reagents tested. In the full data, 9 (1.1%) were called active. 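Calls rest on knock-down alone; synergy scores play no part in calls, and no gene passed the synergy cut.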 Further read-outs or replicates are left out here. Not given: the amount of reagent, the time to read-out.

- Assay: 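Knock-down screen of kinome and colorectal mutation genes alongside three targeted drugs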 (primary screen)
- Cell system: human CAR1 colorectal cancer cells
- Reagent: siRNA pool against human genes
- Challenge: anchor drug BYL719 1 µM, cetuximab 5 µg/ml or trametinib 10 nM, or DMSO vehicle alone; exposure length not given
- Measurement: 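Mean replicate viability versus non-targeting controls, turned into robust z-scores, plus drug synergy scores for BYL719, cetuximab and trametinib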
- Direction: viability robust z-score, knock-down alone: higher = more viable cells
- Active means: 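Essential when viability robust z-score with knock-down alone (DMSO) is below -3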
- Meaning of the calls: active = essential (knock-down alone); inactive = no change

The first 2 records, ahead of the listing:
no.	Target gene	viability robust z-score, knock-down alone	call
1	PKIA	0.789	inactive
2	PXK	-0.157	inactive

Results, from the first entry:
no.	Target gene	viability robust z-score, knock-down alone	call
1	PKIA	0.789	inactive
2	PXK	-0.157	inactive
3	MAP3K10	0.789	inactive
4	NUAK2	-0.994	inactive
5	PAK6	0.789	inactive
6	CTCF	0.0977	inactive
7	DIS3	0.286	inactive
8	PIM3	-0.58	inactive
9	TGFBR1	-1.14	inactive
10	PRKAR1A	-0.257	inactive
11	NME1	0.789	inactive
12	PIM1	-0.437	inactive
13	SRMS	0.458	inactive
14	PIP4K2A	0.789	inactive
15	CAMK1D	-0.262	inactive
16	PIP5K1B	0.789	inactive
17	EFNA5	-0.318	inactive
18	ULK1	0.157	inactive
19	CUL1	0.582	inactive
20	RPS6KC1	0.354	inactive
21	RAD21	0.789	inactive
22	RPS6KB2	0.789	inactive
23	PRKAB1	-1.19	inactive
24	IRAK3	-1.7	inactive
25	PIK3R2	0.0848	inactive
26	GRK5	0.615	inactive
27	IKBKB	-0.399	inactive
28	CAMK2A	0.789	inactive
29	MAP3K15	-0.123	inactive
30	IGF1R	-1.16	inactive
31	FASTK	-0.118	inactive
32	DGKI	0.789	inactive
33	WNK3	0.0503	inactive
34	EPHA8	-0.024	inactive
35	STK10	0.789	inactive
36	NME4	0.789	inactive
37	DAPK2	0.789	inactive
38	PKN1	0.789	inactive
39	CLK3	-1.39	inactive
40	HK3	-1.51	inactive
41	UCK2	0.789	inactive
42	ROCK1	0.789	inactive
43	TYRO3	-1.1	inactive
44	CNOT1	-3.61	active
45	EFNB3	0.557	inactive
46	PSKH2	-1.82	inactive
47	CAD	0.637	inactive
48	TBCK	0.47	inactive
49	PRAG1	-1.38	inactive
50	DGKH	0.732	inactive
